Laboratory results reported in article PMC4847768.

Chains of the proteins cited; added tags and fusions are not shown. Lines headed by an entry give the natural chain unless they say otherwise; changes in a name come on top. Residues count along the entry.
UniProt P11087: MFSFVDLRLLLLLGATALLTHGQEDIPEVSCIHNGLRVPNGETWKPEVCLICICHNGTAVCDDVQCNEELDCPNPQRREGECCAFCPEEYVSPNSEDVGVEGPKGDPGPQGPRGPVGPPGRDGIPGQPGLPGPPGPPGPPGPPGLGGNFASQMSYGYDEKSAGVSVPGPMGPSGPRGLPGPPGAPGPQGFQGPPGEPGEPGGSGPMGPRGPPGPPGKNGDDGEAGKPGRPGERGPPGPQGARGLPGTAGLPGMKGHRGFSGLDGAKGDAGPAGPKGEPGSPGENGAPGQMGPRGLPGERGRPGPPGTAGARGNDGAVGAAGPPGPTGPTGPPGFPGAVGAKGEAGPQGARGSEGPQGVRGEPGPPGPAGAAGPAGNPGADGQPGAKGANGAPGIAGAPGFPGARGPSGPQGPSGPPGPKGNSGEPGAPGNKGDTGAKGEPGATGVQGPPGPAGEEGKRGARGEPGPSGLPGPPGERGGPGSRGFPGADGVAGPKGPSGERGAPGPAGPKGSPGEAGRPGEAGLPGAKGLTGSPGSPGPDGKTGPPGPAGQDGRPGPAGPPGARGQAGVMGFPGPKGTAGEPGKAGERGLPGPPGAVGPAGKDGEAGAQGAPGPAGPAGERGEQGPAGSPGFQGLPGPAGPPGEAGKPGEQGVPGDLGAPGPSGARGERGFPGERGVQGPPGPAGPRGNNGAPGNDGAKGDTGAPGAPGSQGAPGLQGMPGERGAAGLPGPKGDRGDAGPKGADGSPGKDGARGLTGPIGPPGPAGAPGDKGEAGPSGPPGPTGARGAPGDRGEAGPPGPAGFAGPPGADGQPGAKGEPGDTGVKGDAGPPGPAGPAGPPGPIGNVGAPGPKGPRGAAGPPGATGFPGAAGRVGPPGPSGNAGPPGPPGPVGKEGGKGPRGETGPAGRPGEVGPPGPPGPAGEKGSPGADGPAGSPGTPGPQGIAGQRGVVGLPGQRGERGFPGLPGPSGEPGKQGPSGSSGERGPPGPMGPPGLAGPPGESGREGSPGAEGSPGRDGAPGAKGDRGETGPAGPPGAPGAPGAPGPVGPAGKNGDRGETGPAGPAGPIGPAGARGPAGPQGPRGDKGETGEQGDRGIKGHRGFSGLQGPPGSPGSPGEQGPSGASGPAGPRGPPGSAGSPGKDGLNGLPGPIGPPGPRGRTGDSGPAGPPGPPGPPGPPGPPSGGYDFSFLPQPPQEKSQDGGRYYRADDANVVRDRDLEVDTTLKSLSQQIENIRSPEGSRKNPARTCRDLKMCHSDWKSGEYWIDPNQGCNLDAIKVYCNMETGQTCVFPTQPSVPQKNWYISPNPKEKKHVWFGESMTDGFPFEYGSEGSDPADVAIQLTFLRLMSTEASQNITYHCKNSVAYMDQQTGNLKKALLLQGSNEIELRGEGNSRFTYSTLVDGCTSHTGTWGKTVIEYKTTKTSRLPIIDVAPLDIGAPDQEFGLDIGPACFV
UniProt Q01149, residues 86-1125: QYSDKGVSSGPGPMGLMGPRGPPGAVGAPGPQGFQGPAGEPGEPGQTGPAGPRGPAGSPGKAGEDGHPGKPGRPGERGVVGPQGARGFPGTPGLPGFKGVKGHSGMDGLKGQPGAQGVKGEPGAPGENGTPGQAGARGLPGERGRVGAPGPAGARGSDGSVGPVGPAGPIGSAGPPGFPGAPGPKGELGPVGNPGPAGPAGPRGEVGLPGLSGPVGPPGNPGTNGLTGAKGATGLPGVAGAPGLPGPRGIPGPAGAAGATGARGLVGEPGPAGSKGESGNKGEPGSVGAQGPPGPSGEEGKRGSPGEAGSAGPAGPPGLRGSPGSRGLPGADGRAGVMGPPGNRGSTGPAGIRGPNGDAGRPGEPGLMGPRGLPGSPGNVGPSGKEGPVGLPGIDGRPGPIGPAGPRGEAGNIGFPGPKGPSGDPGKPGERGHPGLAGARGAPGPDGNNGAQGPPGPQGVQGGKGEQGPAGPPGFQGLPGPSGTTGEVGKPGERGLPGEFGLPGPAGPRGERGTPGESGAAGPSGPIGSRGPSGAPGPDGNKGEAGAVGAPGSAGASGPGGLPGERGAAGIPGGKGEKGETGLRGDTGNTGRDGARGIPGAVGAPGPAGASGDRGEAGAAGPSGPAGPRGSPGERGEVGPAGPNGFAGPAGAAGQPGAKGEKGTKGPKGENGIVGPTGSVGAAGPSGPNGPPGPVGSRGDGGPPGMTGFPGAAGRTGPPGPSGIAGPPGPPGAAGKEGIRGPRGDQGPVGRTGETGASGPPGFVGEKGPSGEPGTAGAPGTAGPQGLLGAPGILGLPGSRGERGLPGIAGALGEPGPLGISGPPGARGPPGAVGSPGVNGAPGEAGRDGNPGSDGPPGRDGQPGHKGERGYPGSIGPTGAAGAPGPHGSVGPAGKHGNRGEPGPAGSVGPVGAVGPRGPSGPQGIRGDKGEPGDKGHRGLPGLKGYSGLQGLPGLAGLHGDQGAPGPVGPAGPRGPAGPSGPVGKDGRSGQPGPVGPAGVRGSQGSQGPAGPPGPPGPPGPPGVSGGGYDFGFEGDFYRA
UniProt Q3U962, residues 27-1227: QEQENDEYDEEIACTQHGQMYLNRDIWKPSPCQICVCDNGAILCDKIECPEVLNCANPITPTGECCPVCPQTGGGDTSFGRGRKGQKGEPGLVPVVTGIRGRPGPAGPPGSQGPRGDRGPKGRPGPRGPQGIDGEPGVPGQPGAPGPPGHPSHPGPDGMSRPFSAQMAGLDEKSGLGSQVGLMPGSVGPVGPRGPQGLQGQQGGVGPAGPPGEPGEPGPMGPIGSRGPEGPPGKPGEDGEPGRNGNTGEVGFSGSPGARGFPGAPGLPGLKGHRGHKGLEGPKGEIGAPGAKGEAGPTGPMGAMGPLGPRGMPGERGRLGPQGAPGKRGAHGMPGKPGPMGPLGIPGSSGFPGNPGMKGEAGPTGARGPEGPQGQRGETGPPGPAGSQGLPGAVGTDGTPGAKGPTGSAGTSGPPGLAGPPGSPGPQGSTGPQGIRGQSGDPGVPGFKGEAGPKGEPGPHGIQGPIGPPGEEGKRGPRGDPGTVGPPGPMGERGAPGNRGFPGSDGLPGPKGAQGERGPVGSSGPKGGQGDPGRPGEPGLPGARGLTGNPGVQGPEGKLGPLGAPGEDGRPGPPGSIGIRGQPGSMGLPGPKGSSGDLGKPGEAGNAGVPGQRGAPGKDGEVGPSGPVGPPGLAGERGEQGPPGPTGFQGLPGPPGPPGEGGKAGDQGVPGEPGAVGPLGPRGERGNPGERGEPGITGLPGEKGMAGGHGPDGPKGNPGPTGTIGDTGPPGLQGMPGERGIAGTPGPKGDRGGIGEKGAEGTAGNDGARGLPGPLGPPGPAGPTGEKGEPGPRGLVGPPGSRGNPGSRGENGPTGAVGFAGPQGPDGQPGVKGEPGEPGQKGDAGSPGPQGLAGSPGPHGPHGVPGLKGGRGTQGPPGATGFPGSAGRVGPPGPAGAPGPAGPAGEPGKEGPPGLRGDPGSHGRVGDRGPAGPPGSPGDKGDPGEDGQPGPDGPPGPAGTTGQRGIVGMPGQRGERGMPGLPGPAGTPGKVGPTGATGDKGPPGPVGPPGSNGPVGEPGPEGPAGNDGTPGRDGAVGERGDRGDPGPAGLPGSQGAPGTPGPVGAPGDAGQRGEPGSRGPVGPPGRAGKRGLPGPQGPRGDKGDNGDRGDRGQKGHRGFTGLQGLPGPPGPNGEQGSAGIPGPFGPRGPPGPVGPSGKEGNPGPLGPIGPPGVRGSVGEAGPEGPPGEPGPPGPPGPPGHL
UniProt O88207, residues 37-1838: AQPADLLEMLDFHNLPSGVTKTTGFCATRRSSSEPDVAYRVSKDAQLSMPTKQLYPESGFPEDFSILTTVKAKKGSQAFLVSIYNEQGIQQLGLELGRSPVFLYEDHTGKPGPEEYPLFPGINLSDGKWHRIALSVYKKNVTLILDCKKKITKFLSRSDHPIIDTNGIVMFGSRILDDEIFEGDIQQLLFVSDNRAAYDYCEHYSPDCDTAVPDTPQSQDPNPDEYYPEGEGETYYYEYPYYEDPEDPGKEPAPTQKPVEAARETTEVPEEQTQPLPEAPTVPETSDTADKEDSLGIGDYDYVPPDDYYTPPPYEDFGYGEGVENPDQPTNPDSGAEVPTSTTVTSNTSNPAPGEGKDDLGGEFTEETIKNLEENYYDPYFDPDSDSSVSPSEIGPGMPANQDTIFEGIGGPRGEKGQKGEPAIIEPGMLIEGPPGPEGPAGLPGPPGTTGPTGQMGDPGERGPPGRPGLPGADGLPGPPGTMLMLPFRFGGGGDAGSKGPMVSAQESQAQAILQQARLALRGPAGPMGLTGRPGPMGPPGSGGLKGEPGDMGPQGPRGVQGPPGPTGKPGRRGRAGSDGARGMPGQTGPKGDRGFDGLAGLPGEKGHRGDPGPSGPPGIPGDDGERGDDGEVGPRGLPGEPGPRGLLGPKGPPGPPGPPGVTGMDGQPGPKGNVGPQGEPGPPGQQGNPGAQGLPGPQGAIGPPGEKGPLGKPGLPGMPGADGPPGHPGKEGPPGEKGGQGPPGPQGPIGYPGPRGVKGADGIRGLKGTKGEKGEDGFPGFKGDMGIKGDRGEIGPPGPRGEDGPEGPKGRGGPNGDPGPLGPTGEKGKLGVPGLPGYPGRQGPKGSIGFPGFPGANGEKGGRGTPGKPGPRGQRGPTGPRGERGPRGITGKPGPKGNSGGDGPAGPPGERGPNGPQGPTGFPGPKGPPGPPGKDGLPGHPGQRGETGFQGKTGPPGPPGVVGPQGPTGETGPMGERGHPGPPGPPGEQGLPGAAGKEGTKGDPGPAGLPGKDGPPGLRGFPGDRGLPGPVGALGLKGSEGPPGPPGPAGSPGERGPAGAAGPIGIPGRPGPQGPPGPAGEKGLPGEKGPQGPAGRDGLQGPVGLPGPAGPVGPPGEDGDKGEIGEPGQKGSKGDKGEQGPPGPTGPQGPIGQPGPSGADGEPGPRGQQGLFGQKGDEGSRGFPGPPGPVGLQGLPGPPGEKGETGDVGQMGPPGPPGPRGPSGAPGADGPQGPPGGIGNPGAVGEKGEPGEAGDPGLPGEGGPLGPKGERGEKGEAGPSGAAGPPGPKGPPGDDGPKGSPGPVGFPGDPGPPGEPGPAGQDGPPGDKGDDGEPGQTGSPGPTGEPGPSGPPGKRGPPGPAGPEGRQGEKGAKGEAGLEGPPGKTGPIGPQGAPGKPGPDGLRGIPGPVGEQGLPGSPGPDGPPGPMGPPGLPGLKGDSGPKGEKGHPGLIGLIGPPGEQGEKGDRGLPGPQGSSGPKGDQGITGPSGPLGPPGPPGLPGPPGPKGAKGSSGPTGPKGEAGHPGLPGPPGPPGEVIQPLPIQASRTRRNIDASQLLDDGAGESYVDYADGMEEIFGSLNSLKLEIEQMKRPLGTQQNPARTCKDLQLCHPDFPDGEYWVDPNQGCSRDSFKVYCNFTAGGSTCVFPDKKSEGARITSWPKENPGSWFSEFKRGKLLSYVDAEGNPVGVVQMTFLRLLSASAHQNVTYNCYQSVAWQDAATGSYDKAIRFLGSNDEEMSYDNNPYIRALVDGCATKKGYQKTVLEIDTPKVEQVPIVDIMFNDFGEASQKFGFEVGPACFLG

T1: SC65-Flag (Synaptonemal Complex 65, P3H4) (mouse) (UniProt Q8K2B0)
T1 sequence: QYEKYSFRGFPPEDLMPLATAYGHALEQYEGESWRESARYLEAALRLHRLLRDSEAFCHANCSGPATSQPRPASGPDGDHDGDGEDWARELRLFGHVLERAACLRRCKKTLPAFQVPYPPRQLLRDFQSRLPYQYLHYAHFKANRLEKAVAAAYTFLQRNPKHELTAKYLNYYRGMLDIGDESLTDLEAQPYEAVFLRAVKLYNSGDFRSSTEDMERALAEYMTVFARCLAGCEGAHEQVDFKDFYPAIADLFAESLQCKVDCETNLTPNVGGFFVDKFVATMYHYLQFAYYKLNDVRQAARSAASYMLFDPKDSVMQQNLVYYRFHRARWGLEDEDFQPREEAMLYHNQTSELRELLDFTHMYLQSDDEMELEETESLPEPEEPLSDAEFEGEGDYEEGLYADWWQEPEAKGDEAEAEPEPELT

B1: lysyl-hydroxylase 1 (LH1), endogenous (enzyme, UniProt Q9R0E2 19-728)
chain: KDDAKLEDNLLVLTVATKETEGFRRFKRSAQFFNYKIQSLGLGEDWSVDGGPAAAGGGQKVRLLKKALEKHADKEDLVILFVDSYDVVFASGPRELLKKFQQAKSQVVFSAEEHIYPDRRLEAKYPTVPDGKRFLGSGGFIGYAPSLSKLVAEWEGQDSDSDQLFYTKIFLNPEKREQINISLDHRCRIFQNLDGALDEVVLKFEMGHVRARNLAYDTLPVVVHGNGPTKLQLNYLGNYIPRFWTFETGCTVCDEGLRSLKGIGDEALPTVLVGVFIEQPTPFLSLFFLRLLRLRYPQKQMRLFIHNQERHHKLQVEQFLAEHGSEYQSVKLVGPEVRMANADARNMGADLCRQDQTCTYYFSVDADVALTEPNSLRLLIEQNKNVIAPLMTRHGRLWSNFWGGLSADGYYARSEDYVDIVQGRRVGVWNVPYISNIYLIKGSALRAELQNVDLFHYSKLDSDMSFCANVRQQEVFMFLTNRHTFGHLLSLDNYQTTHLHNDLWEVFSNPEDWKEKYIHENYTKALAGKLVETPCPDVYWFPIFTEAACDELVEEMEHYGQWSLGDNKDNRIQGGYENVPTIDIHMNQITFEREWHKFLVEYIAPMTEKLYPGYYTRAQFDLAFVVRYKPDEQPSLMPHHDASTFTVNIALNRVGEDYEGGGCRFLRYNCSVRAPRKGWALLHPGRLTHYHEGLPTTKGTRYIAVSFVDP

The molecules below were run against T1, SC65-Flag (Synaptonemal Complex 65, P3H4) (mouse) (assay: affinity purification with mass spectrometry; 714 cells transiently transfected with SC65-Flag or empty vector, lysed 24 h later in 1 mM EDTA, 0.5% Triton X-100, PBS; anti-Flag antibody on Epoxy Dynabeads, 4 h at 4°C; eluted with 0.5N ammonium hydroxide; gel bands analysed by LC-MS/MS; fold change >1.5 over empty vector counted as enriched).

binding, binds:
collagen α1(I) chain (from UniProt P11087)
collagen α2(I) chain (from UniProt Q01149 86-1125)
collagen α1(XI) chain (from UniProt Q61245)
collagen α2(V) chain (from UniProt Q3U962 27-1227)
collagen α1(V) chain (from UniProt O88207 37-1838)
collagen α2(XI) chain (from UniProt Q64739 28-1736)

Molecular target: T1, SC65-Flag (Synaptonemal Complex 65, P3H4) (mouse)
Test: as above
Remark: another data set of the same source

binding, binds:
B1

These are yes or no findings as the source states them, for the method shown. In cells and extracts the contact can be indirect. A yes stands for co-enrichment or nearness to the bait. Other partners may have been found. Where a sequence is shown, tags or fusion partners need not be part of it.
